According to the supplement of paper PMC3334620:
Whole data set: some 33,000 sequences, median “E-score (-0.5 to 0.5)” near -0.015, cut for the highest 2% near 0.3. Some of the results follow.

What follows are sequences tested against T1, Abf1 (UniProt P14164) (assay: PBM E-score (8-mer binding enrichment) (E-score (-0.5 to 0.5)); higher = stronger / more preferred TF binding). Conditions: protein concentration: 200 nM; construct: GST-full length.
T1 sequence: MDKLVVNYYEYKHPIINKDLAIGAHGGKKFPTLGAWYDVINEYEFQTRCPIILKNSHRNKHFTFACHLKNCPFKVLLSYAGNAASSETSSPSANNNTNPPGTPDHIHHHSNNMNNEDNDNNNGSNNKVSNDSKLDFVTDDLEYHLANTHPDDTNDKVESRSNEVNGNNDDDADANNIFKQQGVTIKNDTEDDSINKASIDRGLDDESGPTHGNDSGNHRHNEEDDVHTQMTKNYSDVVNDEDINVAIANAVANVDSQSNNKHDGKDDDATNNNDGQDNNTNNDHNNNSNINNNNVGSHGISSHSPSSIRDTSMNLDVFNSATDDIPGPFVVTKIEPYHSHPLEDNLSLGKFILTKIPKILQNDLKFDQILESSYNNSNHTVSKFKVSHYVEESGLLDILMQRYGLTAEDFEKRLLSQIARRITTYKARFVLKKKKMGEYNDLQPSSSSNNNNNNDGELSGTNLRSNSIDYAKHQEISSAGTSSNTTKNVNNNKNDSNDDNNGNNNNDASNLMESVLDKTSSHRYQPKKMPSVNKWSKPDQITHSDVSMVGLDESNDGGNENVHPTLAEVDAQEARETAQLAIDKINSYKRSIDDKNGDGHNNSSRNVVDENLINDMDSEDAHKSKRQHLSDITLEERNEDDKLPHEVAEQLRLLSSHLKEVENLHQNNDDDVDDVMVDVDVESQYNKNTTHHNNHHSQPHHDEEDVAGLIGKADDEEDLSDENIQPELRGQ
Method in brief: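 Detection of bound protein used fluorescent anti-GST, with scans normalised by masliner. The proteins were GST-tagged yeast transcription factors applied at about 100-200 nM to universal all-10-mer Agilent arrays made double-stranded by primer extension. Each ungapped eight-base word, pooled with its reverse complement, was scored with an E-score from the Universal PBM Analysis Suite.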

Sequence	PBM E-score
CTCTGACA	0.0737
AATACCGT	0.193
TCAGTACA	0.0618
GCCGTGCC	0.208
CTACGAAA	0.122
CATAAAGA	0.0994
AGCACCAC	-0.214
ATGTTCCC	-0.0789
AACTGCAA	-0.0625
CGGATGCA	-0.282
GGTGAGAC	-0.00153
GAATTTGC	0.0129
AGTCTTCC	-0.0669
CCCCGTCA	-0.0762
ACGTATAA	0.304
ACCCCTAG	-0.18
ATTCCAGC	-0.192
CGACAATC	0.0211
ACTAAAGT	0.0505
AGGAAAGC	-0.197
ATAGGCGC	0.0148
GAACTCAC	-0.00017
CTTGAAGC	0.00419
AAAACTGA	-0.159
GATGGCAC	-0.174

Sequence	PBM E-score
AGTCTGAC	1e-05
CACGATTA	0.247
ATCCTTCG	-0.102
GGTGGGTA	-0.16
CGCGACCA	0.0773
TCAGCGAA	-0.107
CAGCTTCA	0.0428
AGATTATA	-0.00367
ATTCTCCG	0.0487
AAACACGA	0.0784
ATTTTGTA	0.226
CACACGAG	0.107
CGTAGCGA	0.126
ACTCGAAT	-0.104
GAGTCCAC	-0.108
CTAACGCA	0.0971
CCGCAAGG	-0.214
ATTGCGGA	-0.0442
AAATGGAA	0.0995
ATTTAATA	0.251
AAGACGCT	-0.215
TATGAACA	0.028
GCGAGGCA	-0.0982
TTATCAAA	0.242
GCGCTACC	-0.0802

Sequence	PBM E-score
AAGAAGCA	0.0711
CGAGAAAA	0.0842
CTAATCGC	0.0239
CAGGGCTC	-0.276
CACAAAAG	-0.0552
AGTAATAT	0.212
CTCAGACC	-0.207
GTGAGGTA	-0.0243
CAGCCACC	-0.0895
CTACAGTA	-0.0874
CCTCGACA	0.116
CTGTCAGA	-0.0315
GACAATAC	0.202
CTGCAATC	-0.117
TAAGATGA	0.182
ATCCGTAG	0.153
ATGGAGAA	-0.0924
AGTCCGAC	-0.0295
AGAACGGA	0.0362
AGCGTTAC	-0.0165
GGAAATAC	0.168
ACGCAACG	0.0914
CCCCAGAC	-0.295
CACCGTAA	0.101
ATATAGAC	0.108

Sequence	PBM E-score
ATTAGAGG	0.071
CCCAGGTC	-0.113
ATTCTTAC	0.0969
CCTGCGCC	-0.146
ACTCAAAA	0.128
CACCTCGA	0.122
AGATGGAT	-0.108
AGTCGTTC	0.212
CATCTCTC	0.0245
AAAACTCG	0.118
TCACTGAA	0.145
AACATTGG	-0.301
ATAGCTAC	0.0141
ACAATAAA	0.163
CCCGTTAA	-0.0331
GCTCGAGA	-0.143
ACGACGCT	0.129
CGACGTCC	0.166
AGGTGTTA	0.0175
AGACATCA	0.142
CAGGGTTA	-0.0175
ACTGTCAC	0.283
GTTGTACA	0.123
GGCCATGA	-0.13
GCTTATGA	-0.00103

Sequence	PBM E-score
GCCGTTGA	0.173
GAGAACGA	0.153
CGGGGTCC	-0.0747
AGATCTCA	0.121
GCTCGATA	0.0476
CATCGACG	0.205
AGGCATTA	0.0291
GGCTGTAA	0.0297
GTAGTGAC	0.35
CGCATCCA	0.00065
AAGGGTCG	0.237
AAGTTGTA	0.162
CCACATCG	0.0703
CGGGGATA	-0.112
TCTCTGCA	0.0379
TCTGAAGA	-0.139
ACGCCACC	-0.202
ATAATTTG	0.245
AAACAACA	0.0105
CGATTATC	0.241
TCGTAAAA	0.263
CCTACGAC	0.288
CGCTGAGC	0.0156
CCAACCAA	-0.0984
ACACGGCC	-0.0937

In a second layout: entries from further up.

| Sequence | PBM E-score |
| --- | --- |
| TCTGAAGA | -0.139 |
| ACGCCACC | -0.202 |
| ATAATTTG | 0.245 |
| AAACAACA | 0.0105 |
| CGATTATC | 0.241 |
| TCGTAAAA | 0.263 |
| CCTACGAC | 0.288 |

Following part

Sequence	PBM E-score
ACTAGCCG	0.0194
CCTCTGCA	-0.0356
CAGCCCTC	-0.203
AGGCGGTG	-0.168
CTATGGCA	-0.239
TCATGCCA	-0.0271
CCGTTGAG	0.0935
ATGGCACA	-0.196
CTCTCCAA	-0.172
TCTTTTAA	0.169
ACTAACTA	0.061
CCGGAGGA	-0.147
ATGGGCTA	0.161
AAGTCTCG	0.115
CAAAAGTA	0.118
CCGCGGGA	-0.0132
ACCGTAAG	0.226
GACCGAAA	0.0999
GGTTTTTA	-0.0615
AGTTGGGC	-0.0705
AGTCAATG	-0.163
GATCGGGA	-0.164
CTAAATAG	0.0435
CGTAGTAC	0.183
CCTGTGTC	-0.275

Sequence	PBM E-score
AGGGGAAG	-0.0574
CTGCATCA	0.0347
GCCTCCGA	-0.112
ATCAGCGC	0.0308
AGACACTG	-0.0632
CCGCTCAA	-0.119
ATATACAC	-0.0184
AACAACGG	0.274
CCTACTTC	0.0403
AAAGGGGT	-0.188
CCGGTCAA	0.0385
CGGCACCC	-0.145
CATCGCGA	0.2
CAAGACTC	-0.0848
ATCTCAAG	0.0391
AGGCTTGA	-0.211
CGACGTGA	0.297
AGCTCAAA	0.148
GGAGGAAC	-0.218
CGGTCAAA	0.109
ATAAGGCG	-0.0135
CGTAGTCA	0.165
